The target of this assay is T1, human VEGF165 (human, UniProt P15692-4 27-191).
T1 construct: also called hVEGF165
Nature of the assay: summary of Example 2.

Amino acid sequences for entries named in this document (tags omitted). A change or cut given only in a name is not applied to a line headed by its entry. Chains listed by the source or under a name are the forms on record and can include a tag or linker.
human VEGF165 (P15692-4, form named): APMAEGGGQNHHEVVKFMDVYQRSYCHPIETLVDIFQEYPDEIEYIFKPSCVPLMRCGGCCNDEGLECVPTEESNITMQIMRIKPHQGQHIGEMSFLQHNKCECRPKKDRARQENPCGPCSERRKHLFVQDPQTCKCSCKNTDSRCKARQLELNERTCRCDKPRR

These are yes or no findings as the source states them, for the method shown. Some entries that bind do so weakly or less than the wild type.

B1: cleaved VEGF mini-trap (receptor)
chain: SDTGRPFVEMYSEIPEIIHMTEGRELVIPCRVTSPNITVTLKKFPLDTLIPDGKRIIWDSRKGFIISNATYKEIGLLTCEATVNGHLYKTNYLTHRQTNTIIDVVLSPSHGIELSVGEKLVLNCTARTELNVGIDFNWEYPSSKHQHKKLVNRDLKTQSGSEMKKFLSTLTIDGVTRSDQGLYTCAASSGLMTKKNSTFVRVHEKDKTHTCPPCLVPRGS
notes: Product of thrombin digestion of the uncleaved VEGF trap; also called thrombin-cleaved dimeric VEGF mini-trap; truncated trap
Regarding B1, the binding entry is “binds”.

Source of the values: patent US20050043236A1 (published 2005).
